Test [1] deals with T1, 14-3-3ε (endogenous, in human SCC12B.2 squamous cell carcinoma cells) (human), P62258.
T1 chain: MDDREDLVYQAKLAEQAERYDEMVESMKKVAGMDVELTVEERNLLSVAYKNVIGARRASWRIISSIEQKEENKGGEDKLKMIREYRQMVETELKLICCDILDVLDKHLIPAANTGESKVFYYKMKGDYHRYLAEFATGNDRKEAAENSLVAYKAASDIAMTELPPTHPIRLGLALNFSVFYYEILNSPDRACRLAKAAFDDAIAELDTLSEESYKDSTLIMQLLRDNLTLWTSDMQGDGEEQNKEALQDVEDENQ
Put plainly: co-immunoprecipitation with anti-14-3-3ε antibody on Protein G Dynabeads from SCC12B.2 cell lysate, immunoblot; cells treated 48 h with vehicle or ES1P2 (20 µM). As to conditions: remark: other sources report otherwise. In general terms: Immunoblotting shows a protein as a band on a membrane.

For test [2], the target named is 14-3-3ε (endogenous, in human SCC12B.2 squamous cell carcinoma cells) (human) (UniProt P62258). The test is described as above.

Results are given in words; binding and its absence hold for the method and conditions named. Binding seen in cells or lysates may run through a third protein. Some binding calls cover weakened binding; strength is not graded here.

B1: 14-3-3ζ (endogenous, in human SCC cells), P63104 1-245 (protein, UniProt P63104 1-245, looked up)
chain: MDKNELVQKAKLAEQAERYDDMAACMKSVTEQGAELSNEERNLLSVAYKNVVGARRSSWRVVSSIEQKTEGAEKKQQMAREYREKIETELRDICNDVLSLLEKFLIPNASQAESKVFYLKMKGDYYRYLAEVAAGDDKKGIVDQSQQAYQEAFEISKKEMQPTHPIRLGLALNFSVFYYEILNSPEKACSLAKTAFDEAIAELDTLSEESYKDSTLIMQLLRDNLTLWTSDTQGDEAEAGEGGEN
Consider B1, for which the binding result in test [1] is recorded as “binds”.

B2: 14-3-3γ (endogenous, in human SCC cells) (protein, UniProt P61981 1-247, looked up)
chain: MVDREQLVQKARLAEQAERYDDMAAAMKNVTELNEPLSNEERNLLSVAYKNVVGARRSSWRVISSIEQKTSADGNEKKIEMVRAYREKIEKELEAVCQDVLSLLDNYLIKNCSETQYESKVFYLKMKGDYYRYLAEVATGEKRATVVESSEKAYSEAHEISKEHMQPTHPIRLGLALNYSVFYYEIQNAPEQACHLAKTAFDDAIAELDTLNEDSYKDSTLIMQLLRDNLTLWTSDQQDDDGGEGNN
As to B2, the binding result in test [2] was “binds”.

Source of the values: patent US20250042940A1 (CREIGHTON UNIVERSITY, published 2025).
